Measurements reported in PubChem BioAssay AID1224826 (NIAID, 2016)
Aim: 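Genes that change LPS-induced Tnf promoter activity in mouse macrophages when knocked down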 (primary screen). System: RAW264.7 G9 macrophages from mouse bearing reporters for p65 (GFP) and the Tnf promoter (mCherry). Reagents: siRNA pool against mouse genes, 100 nM. Time to read-out: 16 h of LPS stimulation, after 2 days of siRNA transfection. Challenge: bacterial lipopolysaccharide (Salmonella minnesota R595), 10 ng/ml. Detection: 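Imaged Tnf reporter mCherry in nuclei, minus background, normalised per plate to the median and expressed as robust z-scores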. Direction: Tnf reporter robust z-score: higher = stronger Tnf promoter reporter signal after LPS. Rule for the call: 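a well counts as active at a score of -1.3 or below (Tlr4 knock-down control median) or above 3 (raised signal); controls and wells holding fewer than 50 cells are excluded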. Calls: active = Tnf reporter clearly lowered or raised; inactive = no clear change in Tnf reporter.
Shown is an unselected part of about 17,000 deposited reagents. About 1,110 of all reagents (6.6%) were called active. 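Active means lowered or raised reporter signal; replicate intensities are raw and not normalised per plate.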 The numbers tell different reagents against one gene apart. Not all columns of the deposit are shown.

| target gene | pool no. | Tnf reporter robust z-score | fewer than 50 cells in well | Outcome |
| --- | --- | --- | --- | --- |
| Adap2 (GeneID 216991) | 1 | -0.48 | enough cells in well | inactive |
| Or5an9 (GeneID 258409) | 1 | 0.16 | enough cells in well | inactive |
| Tbpl1 (GeneID 237336) | 1 | -0.79 | enough cells in well | inactive |
| Or4f6 (GeneID 258441) | 1 | -0.1 | enough cells in well | inactive |
| Ufm1 (GeneID 67890) | 1 | – | fewer than 50 cells per well; well left out of calls | inactive |
| Cxxc1 (GeneID 74322) | 1 | -1.26 | enough cells in well | inactive |
| Unc5cl (GeneID 76589) | 1 | – | fewer than 50 cells per well; well left out of calls | inactive |
| Nfatc2 (GeneID 18019) | 1 | -0.52 | enough cells in well | inactive |
| Zc3h12d (GeneID 237256) | 1 | 0.02 | enough cells in well | inactive |
| Pecr (GeneID 111175) | 1 | 0 | enough cells in well | inactive |
| Or5w17 (GeneID 258630) | 1 | -0.49 | enough cells in well | inactive |
| Birc3 (GeneID 11796) | 1 | 1.38 | enough cells in well | inactive |
| Kng2 (GeneID 385643) | 1 | -0.51 | enough cells in well | inactive |
| Ctnnd2 (GeneID 18163) | 1 | -0.83 | enough cells in well | inactive |
| Pik3c2a (GeneID 18704) | 1 | -0.5 | enough cells in well | inactive |
| Ctxn1 (GeneID 330695) | 1 | -1.82 | enough cells in well | active |
| Radil (GeneID 231858) | 1 | -1.63 | enough cells in well | active |
| Or52e4 (GeneID 258355) | 1 | 0.95 | enough cells in well | inactive |
| Krt84 (GeneID 16680) | 1 | 0.51 | enough cells in well | inactive |
| Atf7ip2 (GeneID 75329) | 1 | 2.05 | enough cells in well | inactive |
| Atf7ip2 (GeneID 75329) | 2 | -0.11 | enough cells in well | inactive |
| Gemin4 (GeneID 276919) | 1 | 0.88 | enough cells in well | inactive |
| Rplp2 (GeneID 67186) | 1 | -1.07 | enough cells in well | inactive |
| Crlf1 (GeneID 12931) | 1 | 0.71 | enough cells in well | inactive |

Sorted by “Tnf reporter robust z-score” (descending): some entries from above.
| target gene | pool no. | Tnf reporter robust z-score | fewer than 50 cells in well | Outcome |
| --- | --- | --- | --- | --- |
| Or5an9 (GeneID 258409) | 1 | 0.16 | enough cells in well | inactive |
| Tbpl1 (GeneID 237336) | 1 | -0.79 | enough cells in well | inactive |
